Reference: PubChem BioAssay AID1259425 (University of Nebraska Medical Center, 2018)
Here is one part, drawn at random, of about 14,000 reagents tested. Not all columns of the deposit are shown. Not given: the time to read-out.

Screen: 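Compare each knockdown with KSR1 silencing using changes in marker transcripts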 (primary screen)
System: HCT116 human colon cancer cells
Knock-down reagent: siRNA pool against human genes, 50 nM siRNA
Detection: 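After 50 nM siRNA pool, branched-DNA assay measures six marker transcripts per well, minus blank, normalised to the geometric mean of two housekeeping transcripts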
Scale: BNIP3L mRNA: higher = more BNIP3L transcript after knockdown; NDRG1 mRNA: higher = more NDRG1 transcript after knockdown

target gene,"BNIP3L mRNA, set 1","NDRG1 mRNA, set 1"
ACTR3,0.111,0.066
CENPC,0.182,0.298
UPK3A,0.0732,0.308
SRPX2,0.224,0.0756
TTYH1,0.212,0.491
ATP12A,0.136,0.11
PAX6,0.136,0.399
INO80B,0.238,1.19
SNED1,0.127,0.109
CCAR1,0.077,0.109
DUSP23,0.0498,0.145
ANKRD20A1,0.227,0.138
EMC9,0.116,0.12
ASPM,0.144,1.12
CARMIL1,0.0807,0.126
ABCG5,0.242,0.232
PLA2G2E,0.0932,0.0858
CAND2,0.0919,0.162
IFNA13,0.116,0.172
MSH5,0.0801,0.157
EFHC2,0.292,0.58
ST8SIA2,0.143,0.445
TXNL4B,0.149,0.24
HIKESHI,0.905,0.525
JADE1,0.09,0.283
SCN5A,0.0883,0.24
OPRD1,0.146,0.698
COQ7,0.0987,0.151
CTAG2,0.095,0.146
PDE1C,0.087,0.112
MUSK,0.0514,0.306
MIPOL1,0.0605,0.0894
POLM,0.0458,0.139
H4C3,0.106,0.35
TRRAP,0.16,0.146
TPRXL,0.247,0.0767
ZNF229,0.15,0.349
LYPD3,0.121,0.28
VKORC1,0.101,0.138
FBXL21P,0.0463,0.0904
ESRRA,0.0867,0.313
RBL1,0.126,0.262
CFC1,0.0568,0.0463
MYCL,0.0955,0.401
RAP1B,0.13,0.245
TNC,0.125,0.0752
SPIDR,0.0915,0.134
FPR3,0.0905,0.223
TRIM8,0.144,0.158
PPM1G,0.0922,0.262
CLU,0.0863,0.355
LHX3,0.101,0.0703
SPAG8,0.0815,0.121
CA11,0.0746,0.201
LSR,0.0869,0.636
SCGB1A1,0.0717,0.144
RIOK1,0.17,0.0853
SULT1E1,0.0597,0.0708
SLC5A5,0.0949,0.62
NELFE,0.154,0.679
AQP1,0.0586,0.317
ABHD14B,0.252,0.523
OXER1,0.223,0.199

Already shown: 7 of the entries above.
target gene,"BNIP3L mRNA, set 1","NDRG1 mRNA, set 1"
SCN5A,0.0883,0.24
OPRD1,0.146,0.698
COQ7,0.0987,0.151
CTAG2,0.095,0.146
PDE1C,0.087,0.112
MUSK,0.0514,0.306
MIPOL1,0.0605,0.0894
